# Assay results taken from patent US7414068B2, “Benzopyran derivatives substituted with secondary amines including tetrazole, method for the preparation thereof and pharmaceutical compositions containing them” (Dongbu Hannong Chemical Co., Ltd., priority 2002, dated 2008).
# Some of these results come from one statement about several compounds together.
# Tested on: brain homogenate
# Assay: Inhibitory effect against lipid peroxidation by iron (MDA quantification)
# Format: biochemical, rat
# Details: 100 μM compound, FeCl2 400 μM, 37° C. 30 min
# Method: The rat brain was homogenized in a Krebs buffer (15 mM HEPES, 10 mM glucose, 140 mM NaCl, 3.6 mM KCl, 1.5 mM CaCl2, 1.4 mM KH2PO4, 0.7 mM MgCl2, PH 7.4) and the supernatant separated by centrifugation at 12,000 rpm for 10 min was used for further experiments. FeCl2 was added for the final concentration to be 400 μM. Then the brain homogenate was allowed to stand at 37° C. for 30 min for the facilitation of oxidation. Each of the test compounds was added at a concentration of 100 μM. For control group, only vehicle was applied.
# Iron facilitates the oxidation of the said brain homogenate to produce malondialdehyde (MDA), lipid peroxidation product. Thus, the lipid peroxidation was determined by MDA quantification. The inhibitory effect against lipid peroxidation of the test compounds was evaluated by calculating MDA reduction rate of the test compounds compared with that of the control group.
# Typically, the MDA quantification is achieved by reacting samples with 2-thiobarbituric acid (TBA) and measuring the absorbance at 530 nm. However, this method is unsuitable to treat samples on a large scale because of a boiling step. Thus, in this experiment, N-methyl-2-phenylindole was used instead of TBA.
structure (smiles),measurement,value
"COC(OC)[C@]1(C)Oc2ccc(N)cc2[C@H](N(Cc2nnn(C)n2)c2ccc(Cl)cc2)[C@H]1O [Example 108, (2R,3R,4S)-6-amino-4-[N-(4-chlorophenyl)-N-(2-methyl-2H-tetrazol-5-ylmethyl)amino]-3-hydroxy-2-methyl-2-dimethoxymethyl-3,4-dihydro-2H-1-benzopyran]","inhibitory effect against lipid peroxidation induced by iron (%, 100 μM)",higher than 90%
